Reference: publication PMC6579518
Results are given in words; binding and its absence hold for the method and conditions named. Binding calls can cover weak binding; strength is not graded here. For some assays here: Binding seen in cells or lysates may run through a third protein.

Sequences of proteins named here, by UniProt entry; tags and fusion partners are left off. A change or cut given only in a name is not applied to a line headed by its entry.
UniProt P04449: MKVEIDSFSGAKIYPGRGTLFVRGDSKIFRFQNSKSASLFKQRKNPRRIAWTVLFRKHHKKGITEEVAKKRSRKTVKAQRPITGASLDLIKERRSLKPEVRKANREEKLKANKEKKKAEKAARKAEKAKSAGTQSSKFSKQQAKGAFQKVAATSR
UniProt P05738: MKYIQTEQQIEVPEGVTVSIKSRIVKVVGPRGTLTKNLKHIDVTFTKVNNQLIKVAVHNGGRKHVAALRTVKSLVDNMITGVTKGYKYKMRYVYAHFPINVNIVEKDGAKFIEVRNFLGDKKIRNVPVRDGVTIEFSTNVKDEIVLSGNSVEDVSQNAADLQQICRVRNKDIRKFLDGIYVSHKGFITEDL

Assays:
[1] = target: ribosomal protein eL24 (S. cerevisiae (endogenous in the Lsg1-TAP strain)) (UniProt P04449); assay: cryo-EM structure; native pre-60S particles purified by Lsg1-TAP from S. cerevisiae, 0.5% glutaraldehyde 10 min 4°C, 40 nM on grids; six states (I-VI) by 3D classification, 3.1-3.9 Å
[2] = target: ribosomal protein eL24 (S. cerevisiae (endogenous in the Lsg1-TAP strain)) (UniProt P04449); assay: cross-linking; XL-MS: Lsg1-TAP pre-ribosomal particles (tandem affinity purified, BY4741) cross-linked with 1.5 mM DSS d0/d12 in 20 mM HEPES pH 8.3, 5 mM MgCl2; trypsin, LC-MS/MS, xQuest; two biological replicates
[3] = target: ribosomal protein uL6 (S. cerevisiae (endogenous in the Lsg1-TAP strain)) (UniProt P05738); assay: cryo-EM structure; native pre-60S particles purified by Lsg1-TAP from S. cerevisiae, 0.5% glutaraldehyde 10 min 4°C, 40 nM on grids; six states (I-VI) by 3D classification, 3.1-3.9 Å

binding [1] | binding [2] | binding [3] | Binder
binds | binds |  | Reh1 (protein, UniProt Q06709 1-432) MSSTFFTCNCCVIQFKTSDLQRYHMKTEWHRYNLKRRIANLPPIGAEQFAEKLQISEKEQAENQVDEFGFPVLKPVMNQSNALPQKQKKPIKSKRGRKVGTNLLKRKDRDIAKEKQNRSVSPSGSISSQLSNLTVGTENTNTDYGEDTVSEYGFTSDSNYEYATSDEELDIADKPSDKENEKITITECIYCGKDNKEVERNVKHMFSEHGLFIPERSYLIDLNGLLEFLIKMIVIDHNCLCCNFHGSGLESIRAHMASKRHCRLPYETKEERQLFAPFYDFTYDDHSISKNLQNDRAITSKLSSVYGAKNDEEDGEVDITLVSSENDINANYTTVSIDESGLELTLPTGARLGHRAGQRYYRQNLPSQPNPNESRRTITAADRRMVSGVTEKQYKKGMKKMQQLEKNAINTQIRREIKRVNFQTHYRDELLQ
 |  | binds | Yvh1 (protein, UniProt Q02256 1-364) MAGNANSVDEEVTRILGGIYLGGIRPIIDHRPLGAEFNITHILSVIKFQVIPEYLIRKGYTLKNIPIDDDDVTDVLQYFDETNRFIDQCLFPNEVEYSPRLVDFKKKPQRGAVFAHCQAGLSRSVTFIVAYLMYRYGLSLSMAMHAVKRKKPSVEPNENFMEQLHLFEKMGGDFVDFDNPAYKQWKLKQSIKLDPSGSELVSNSGMFKDSESSQDLDKLTEAEKSKVTAVRCKKCRTKLALSTSFIAHDPPSKESSEGHFIKRAANSHRIIDIQESQANCSHFFIEPLKWMQPELQGKQELEGKFSCPGCSSKVGGYNWKGSRCSCGKWVIPAIHLQTSKVDQFPLQSTALPNMVNFESEKVNR
binds | binds |  | Rei1 (protein, UniProt P38344 1-393) MSSSGVYTCNSCVLTFDSSDEQRAHMKSDWHRYNLKRRVAQLPPISFETFDSKVSAAAASTSKSAEKEKPVTKKELKRREKQALLEKKKKLLEIARANMLENMQKSQEGNTPDLSKLSLQENEENKEKEEPKKEEPEQLTEEEMAERVMQEKLRNRVDIPLEQCLFCEHNKHFKDVEENLEHMFRTHGFYIPEQKYLVDKIGLVKYMSEKIGLGNICIVCNYQGRTLTAVRQHMLAKRHCKIPYESEDERLEISEFYDFTSSYANFNSNTTPDNEDDWEDVGSDEAGSDDEDLPQEYLYNDGIELHLPTGIKVGHRSLQRYYKQDLKPEVILTEGQGTLVAAETRSFLPAFDKKGVQTQQRVWQTERFDKKRLDKRSAKFVNNQPHYRDQLLQ
